# Results of single-concentration screens

Sequences of proteins named here, by UniProt entry; tags and fusion partners are left off. Residues count along the entry.
UniProt I6X8D2, whole entry: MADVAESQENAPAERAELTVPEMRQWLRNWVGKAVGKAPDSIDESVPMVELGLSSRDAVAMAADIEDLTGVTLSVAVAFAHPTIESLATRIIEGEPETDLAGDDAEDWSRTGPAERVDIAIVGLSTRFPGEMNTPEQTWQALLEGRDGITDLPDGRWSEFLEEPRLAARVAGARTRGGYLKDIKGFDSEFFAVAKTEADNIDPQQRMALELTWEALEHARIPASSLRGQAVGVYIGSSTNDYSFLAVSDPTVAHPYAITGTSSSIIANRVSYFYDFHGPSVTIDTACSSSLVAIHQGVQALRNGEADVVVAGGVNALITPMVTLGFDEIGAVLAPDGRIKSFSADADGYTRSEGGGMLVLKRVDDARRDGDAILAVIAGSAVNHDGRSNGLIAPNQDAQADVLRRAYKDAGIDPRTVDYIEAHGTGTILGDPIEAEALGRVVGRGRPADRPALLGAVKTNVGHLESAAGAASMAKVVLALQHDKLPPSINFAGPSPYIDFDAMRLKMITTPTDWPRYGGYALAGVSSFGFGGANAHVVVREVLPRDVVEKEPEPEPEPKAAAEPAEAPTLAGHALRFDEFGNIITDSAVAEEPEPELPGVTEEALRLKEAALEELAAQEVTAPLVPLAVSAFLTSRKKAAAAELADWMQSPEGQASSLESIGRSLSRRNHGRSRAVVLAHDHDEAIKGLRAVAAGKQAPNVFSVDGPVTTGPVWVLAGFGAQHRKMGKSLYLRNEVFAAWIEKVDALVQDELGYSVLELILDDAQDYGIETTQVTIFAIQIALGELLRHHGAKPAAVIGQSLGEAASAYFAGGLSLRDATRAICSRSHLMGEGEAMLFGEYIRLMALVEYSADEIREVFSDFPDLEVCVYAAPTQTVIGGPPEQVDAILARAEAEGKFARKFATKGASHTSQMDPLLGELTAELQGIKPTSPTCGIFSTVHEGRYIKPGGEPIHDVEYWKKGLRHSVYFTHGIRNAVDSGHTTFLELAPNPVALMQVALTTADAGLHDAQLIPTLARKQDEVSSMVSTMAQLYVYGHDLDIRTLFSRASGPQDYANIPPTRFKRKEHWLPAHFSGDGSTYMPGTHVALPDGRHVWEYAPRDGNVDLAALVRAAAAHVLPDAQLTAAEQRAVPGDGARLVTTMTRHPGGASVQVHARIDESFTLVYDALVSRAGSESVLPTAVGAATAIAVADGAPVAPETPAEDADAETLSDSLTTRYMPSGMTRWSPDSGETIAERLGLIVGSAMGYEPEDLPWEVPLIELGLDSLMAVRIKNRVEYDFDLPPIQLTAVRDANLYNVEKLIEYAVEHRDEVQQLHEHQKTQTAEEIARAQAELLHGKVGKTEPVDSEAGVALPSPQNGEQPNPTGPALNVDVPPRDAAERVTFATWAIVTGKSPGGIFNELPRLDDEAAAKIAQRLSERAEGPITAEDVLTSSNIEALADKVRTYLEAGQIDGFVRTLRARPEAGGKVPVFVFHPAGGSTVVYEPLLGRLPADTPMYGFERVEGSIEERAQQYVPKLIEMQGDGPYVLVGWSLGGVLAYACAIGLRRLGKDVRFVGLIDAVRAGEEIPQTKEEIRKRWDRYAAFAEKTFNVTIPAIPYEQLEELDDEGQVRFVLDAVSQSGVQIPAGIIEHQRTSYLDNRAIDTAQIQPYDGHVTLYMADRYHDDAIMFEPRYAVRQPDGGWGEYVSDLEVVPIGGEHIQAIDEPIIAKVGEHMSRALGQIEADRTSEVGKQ
UniProt A4I591, 1-473: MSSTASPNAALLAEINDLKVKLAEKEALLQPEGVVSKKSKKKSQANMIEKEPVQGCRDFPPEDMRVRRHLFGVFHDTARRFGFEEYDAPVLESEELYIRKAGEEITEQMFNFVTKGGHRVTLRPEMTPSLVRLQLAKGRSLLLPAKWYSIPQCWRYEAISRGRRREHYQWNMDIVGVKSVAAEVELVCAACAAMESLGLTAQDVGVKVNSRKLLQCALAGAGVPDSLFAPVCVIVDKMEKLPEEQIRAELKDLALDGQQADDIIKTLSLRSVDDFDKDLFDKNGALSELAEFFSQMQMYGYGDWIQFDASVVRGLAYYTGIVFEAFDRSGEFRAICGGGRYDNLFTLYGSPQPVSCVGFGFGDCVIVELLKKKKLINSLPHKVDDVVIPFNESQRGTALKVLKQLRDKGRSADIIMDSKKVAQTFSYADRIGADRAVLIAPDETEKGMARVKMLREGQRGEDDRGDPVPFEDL
UniProt P9WPC5, whole entry: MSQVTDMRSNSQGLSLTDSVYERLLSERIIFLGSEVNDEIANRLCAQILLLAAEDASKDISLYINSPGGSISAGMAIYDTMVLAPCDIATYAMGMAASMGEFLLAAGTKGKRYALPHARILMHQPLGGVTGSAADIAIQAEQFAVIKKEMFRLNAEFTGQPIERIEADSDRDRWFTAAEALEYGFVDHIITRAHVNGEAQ
UniProt P9WPC3, whole entry partner: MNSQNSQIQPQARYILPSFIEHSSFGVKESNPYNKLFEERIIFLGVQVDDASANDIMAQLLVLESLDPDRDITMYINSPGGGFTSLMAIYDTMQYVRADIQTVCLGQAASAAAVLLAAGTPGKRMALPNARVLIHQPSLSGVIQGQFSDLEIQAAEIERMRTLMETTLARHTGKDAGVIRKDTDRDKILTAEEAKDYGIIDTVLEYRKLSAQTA
UniProt P9WNZ1, whole entry: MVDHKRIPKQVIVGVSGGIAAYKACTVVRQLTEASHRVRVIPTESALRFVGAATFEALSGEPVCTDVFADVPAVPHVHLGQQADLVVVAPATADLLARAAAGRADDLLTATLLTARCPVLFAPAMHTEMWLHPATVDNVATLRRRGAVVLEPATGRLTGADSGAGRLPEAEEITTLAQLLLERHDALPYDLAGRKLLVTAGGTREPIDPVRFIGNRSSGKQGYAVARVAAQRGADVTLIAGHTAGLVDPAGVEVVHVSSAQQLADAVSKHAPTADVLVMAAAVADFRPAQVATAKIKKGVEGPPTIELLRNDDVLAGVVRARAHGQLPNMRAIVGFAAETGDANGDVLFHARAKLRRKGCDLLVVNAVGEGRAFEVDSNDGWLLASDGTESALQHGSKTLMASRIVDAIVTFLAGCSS

Data taken from ChEMBL document CHEMBL3988442, “University of Dundee, Small-Polar-MMV Screening Library” (2021).

Values are the deposited “Percent Effect”, in %. The record does not define 0% and 100%; most values in the screen are far below 50% and negative numbers occur (in some assays of this library far below -100). Compounds were drawn at random from those tested, without regard to their results.

Pks13 thioesterase: 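Enzyme assay of the thioesterase domain of polyketide synthase 13; the read-out is not stated. Target: Polyketide synthase Pks13, Mycobacterium tuberculosis (UniProt I6X8D2). Tested at 30 µM. Higher reads as stronger inhibition (inferred from which compounds were picked for retests). Of about 67,000 compounds tested this way, about 300 (0.46%) reached 50% or more in at least one test.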
LiHisRS: 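Enzyme assay of histidyl-tRNA synthetase; the read-out is not stated. Target: Histidine-tRNA ligase, Leishmania infantum (UniProt A4I591). Concentration: 30 µM. Higher reads as stronger inhibition (inferred: compounds with an IC50 in retests scored well above the rest). The assay is labelled LdHisRS but filed under L. infantum. Size under these conditions: about 69,000 compounds, about 410 of them at 50% or above in at least one test.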
Leishmania in macrophages: 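Cell assay of Leishmania donovani living inside macrophages; the read-out is not stated. Concentration: 30 µM. Higher reads as stronger inhibition (inferred: compounds with an IC50 in retests scored well above the rest). About 69,000 compounds were tested under these conditions; 1.5% (about 1,000) showed 50% or more at least once.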
ClpP1P2: 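Protease assay of ClpP1P2, read by the AMC dye that it sets free. Target: ClpP1P2, Mycobacterium tuberculosis (UniProt P9WPC5 and UniProt P9WPC3). Compounds at 50 µM. Direction is inferred from only a few compounds that gave an IC50; most scored high, so higher reads as stronger inhibition. Most other retested compounds had strongly negative values. Size under these conditions: about 69,000 compounds, about 10 of them at 50% or above in at least one test.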
Toxoplasma: 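Assay of Toxoplasma gondii numbers, read through their beta-galactosidase reporter with a colour substrate. Compounds at 10 µM. The record gives no direction; the compounds picked for IC50 retests had high values, so higher reads as fewer parasites. Size under these conditions: about 67,000 compounds, about 260 of them at 50% or above in at least one test.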
CoaBC: 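Enzyme assay of CoaBC with a phosphate dye (Biomol Green) read at 650 nm. Target: Coenzyme A biosynthesis protein CoaBC, Mycobacterium tuberculosis (UniProt P9WNZ1). Tested at 30 µM. Higher reads as stronger inhibition, judged from the few compounds that gave an IC50. Most strong results did not repeat in a second test. Of about 67,000 compounds tested this way, about 40 (0.06%) reached 50% or more in at least one test.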

Result for CC(C)[C@@H]1CN(C(=O)C2(c3ccccc3)CC2)C[C@H]1C(=O)O was Pks13 thioesterase: 8.306%; LiHisRS: 4.651%; Leishmania in macrophages: 5.601%; ClpP1P2: -3.807%; Toxoplasma: -1.948%; CoaBC: -0.86%. With O=C(CC(F)(F)F)Nc1cc(F)ccc1OCC1CCCO1 (configuration not stated) the screen gave Pks13 thioesterase: -11.76%; LiHisRS: -3.846%; Leishmania in macrophages: 22.03%; ClpP1P2: -18.67%; Toxoplasma: 9.599%; CoaBC: 4.301%. For Cc1cc(C(F)F)nn1CC(=O)NCc1nccn1C the result was Pks13 thioesterase: 1.272%; LiHisRS: 9.79%; Leishmania in macrophages: 6.705%; ClpP1P2: -1.112%; Toxoplasma: 0.6782%; CoaBC: 3.39%. With CCc1nc(C2CCCN2C(=O)CCCn2cncn2)no1 (configuration not stated) the screen gave Pks13 thioesterase: -7.497%; LiHisRS: 13.46%; Leishmania in macrophages: 19.15%; ClpP1P2: -72.78%; Toxoplasma: 7.923%; CoaBC: 4.54%. Result for COc1ccc(O[C@H]2COCCN(C(=O)c3ccno3)C2)cc1 was Pks13 thioesterase: -27.2%; LiHisRS: -22.97%; Leishmania in macrophages: 25.95%; ClpP1P2: -0.8419%; Toxoplasma: -0.129%; CoaBC: 7.726%. With Cc1ccc(OC2(C(=O)O)CCN(C(=O)c3cccs3)CC2)cn1 the screen gave Pks13 thioesterase: -18.07%; LiHisRS: -5.556%; Leishmania in macrophages: 2.466%; ClpP1P2: -3.293%; Toxoplasma: -18.37%; CoaBC: -3.571%.

CC(COc1ccccc1)NS(C)(=O)=O (configuration not stated) read Pks13 thioesterase: -23.56%; LiHisRS: 9.402%; Leishmania in macrophages: 15.39%; ClpP1P2: -0.4839%; Toxoplasma: -3.803%; CoaBC: -7.983%. With c1cnnc(N2CCCC2CNCc2nc(C3CC3)no2)c1 (configuration not stated) the screen gave Pks13 thioesterase: -9.764%; LiHisRS: 12.77%; Leishmania in macrophages: 20.08%; ClpP1P2: 3.506%; Toxoplasma: 2.632%; CoaBC: 6.477%. For Cc1nc(CN2CCCC(NCCc3ccccc3Cl)C2)no1 (configuration not stated) the result was Pks13 thioesterase: -38.92%; LiHisRS: -1.124%; Leishmania in macrophages: 47.52%; ClpP1P2: -14.47%; CoaBC: 0.2571%. CCc1cnc(NCCSc2cnn[nH]2)nc1 gave Pks13 thioesterase: -114.3%; LiHisRS: 20%; Leishmania in macrophages: -34.14%; ClpP1P2: 10.8%; Toxoplasma: -3.279%; CoaBC: 9.091%. Result for O=C(CCc1nc(Cl)n[nH]1)N1C[C@@H](CN2CCCCC2)[C@@H](CO)C1 was Pks13 thioesterase: -30.45%; LiHisRS: 8.901%; Leishmania in macrophages: 16.63%; ClpP1P2: -7.172%; Toxoplasma: -0.437%; CoaBC: 3.478%. For C[C@@H]1C[C@H]2CN(C(=O)C3=CCCCC3)C[C@H]2O1 the result was Pks13 thioesterase: -18.95%; LiHisRS: 15.53%; ClpP1P2: -3.615%; CoaBC: 1.272%.

CN(Cc1csc(-c2cccs2)n1)C(=O)CCn1ccc(=O)[nH]c1=O read Pks13 thioesterase: 2.939%; LiHisRS: 9.677%; Leishmania in macrophages: -8.493%; ClpP1P2: 7.415%; CoaBC: -0.123%. For CNC(=O)c1nc(CN2CCOC(CCCC(C)C)C2)no1 (configuration not stated) the result was Pks13 thioesterase: -39.2%; LiHisRS: 23.94%; Leishmania in macrophages: -1.906%; ClpP1P2: 12.52%; Toxoplasma: 3.49%; CoaBC: 9.611%. CCN(C)CC(=O)N1CCN(Cc2ccccc2)[C@@H]2CS(=O)(=O)C[C@@H]21 gave Pks13 thioesterase: -22.62%; LiHisRS: 11.11%; ClpP1P2: -5.591%; CoaBC: 1.984%. CC(C)OCCC(=O)NCC(O)c1c(F)cccc1F (configuration not stated) gave Pks13 thioesterase: -20.46%; LiHisRS: 14.29%; Leishmania in macrophages: 25.48%; ClpP1P2: -4.243%; Toxoplasma: 1.705%; CoaBC: 7.283%. With Cc1nnc(C(C)N2CCN(Cc3ccc(C#N)cc3)CC2)o1 (configuration not stated) the screen gave Pks13 thioesterase: -6.994%; LiHisRS: 9.524%; Leishmania in macrophages: -8.209%; ClpP1P2: -4.426%; Toxoplasma: -1.551%; CoaBC: 1.779%. O=C(CCc1ccncc1)Nc1ccc(OCC2CC2)cc1 gave Pks13 thioesterase: -19.81%; LiHisRS: 16.67%; Leishmania in macrophages: 31.15%; ClpP1P2: -5.414%; Toxoplasma: 1.082%; CoaBC: 6.341%.

For Cc1cc(C(=O)N2CCCC(c3nccn3C)C2)cc(S(N)(=O)=O)c1C (configuration not stated) the result was Pks13 thioesterase: -5.956%; LiHisRS: 11.7%; Leishmania in macrophages: 49.92%; ClpP1P2: 1.43%; Toxoplasma: 7.895%; CoaBC: 2.357%. With Cc1cc(C2CCCN(C(=O)COc3ccc(F)cc3)C2)n[nH]1 (configuration not stated) the screen gave Pks13 thioesterase: -13.67%; LiHisRS: 9.524%; Leishmania in macrophages: 6.08%; ClpP1P2: -4.413%; Toxoplasma: 5.133%; CoaBC: 0.3241%. With Cc1cc(CN2CCN(c3nn4cc(C)nc4s3)CC2)on1 the screen gave Pks13 thioesterase: -8.303%; LiHisRS: 16.22%; Leishmania in macrophages: 30.21%; ClpP1P2: 3.782%; Toxoplasma: 4.893%; CoaBC: 10.44%. Result for CC(C)CN1C(=O)CO[C@@H]2CN(C(=O)N(C)C)C[C@H]21 was Pks13 thioesterase: -8.353%; LiHisRS: 8.772%; ClpP1P2: 4.506%; CoaBC: 1.057%. Result for O=C(C1CCOC1)N1CCC(OCc2ccccc2)CC1 (configuration not stated) was Pks13 thioesterase: -12.24%; LiHisRS: 16.78%; Leishmania in macrophages: -1.53%; ClpP1P2: -8.75%; Toxoplasma: -15.13%; CoaBC: -0.7407%. With Cc1nn(C)c(C)c1CCC(=O)N1CC(c2cccnc2)C1 the screen gave Pks13 thioesterase: -16.2%; LiHisRS: 16.44%; Leishmania in macrophages: 2.28%; ClpP1P2: 4.401%; Toxoplasma: 5.774%; CoaBC: -5%.

[H][C@]12CN(CCc3cccc(F)c3)CC[C@@]1(O)CCN(S(=O)(=O)N(C)C)C2 read Leishmania in macrophages: -6.127%; Toxoplasma: -3.081%. Result for O=C(Nc1ccc(F)cc1)N1CCC2(CCC(=O)N(C3CC3)C2)CC1 was Pks13 thioesterase: -33.72%; LiHisRS: 6.25%; Leishmania in macrophages: 26.88%; ClpP1P2: -0.4275%; Toxoplasma: -1.652%; CoaBC: 9.821%.

For reference, 3 entries once more:

With Cc1cc(C(F)F)nn1CC(=O)NCc1nccn1C the screen gave Pks13 thioesterase: 1.272%; LiHisRS: 9.79%; Leishmania in macrophages: 6.705%; ClpP1P2: -1.112%; Toxoplasma: 0.6782%; CoaBC: 3.39%.
With O=C(CCc1ccncc1)Nc1ccc(OCC2CC2)cc1 the screen gave Pks13 thioesterase: -19.81%; LiHisRS: 16.67%; Leishmania in macrophages: 31.15%; ClpP1P2: -5.414%; Toxoplasma: 1.082%; CoaBC: 6.341%.
With Cc1cc(C2CCCN(C(=O)COc3ccc(F)cc3)C2)n[nH]1 (configuration not stated) the screen gave Pks13 thioesterase: -13.67%; LiHisRS: 9.524%; Leishmania in macrophages: 6.08%; ClpP1P2: -4.413%; Toxoplasma: 5.133%; CoaBC: 0.3241%.